# Small-molecule microarray binding calls

Data from the ROBIN nucleic acid binder screens, doi:10.1002/anie.202211358.

Targets, with sequences 5′ to 3′:
PreQ1: PreQ1 riboswitch RNA pseudoknot, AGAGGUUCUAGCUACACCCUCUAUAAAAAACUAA. From B. subtilis. About 24,000 compounds screened, about 170 hits.

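The test is a small-molecule microarray: each compound is printed twice on a reactive slide, and binding shows as fluorescence of the labelled oligonucleotide after washing. For the PreQ1, TPP and SAM-II riboswitches the laboratory earlier reported (doi:10.1038/s41467-019-09493-3) 1 µM RNA, 2 h, and a rule that included a mean Z-score above 3 (spot signal-to-noise against the whole library), a score well above that on a control array, and duplicate spots agreeing (coefficient of variation under 100). The data file gives only the calls; its cut-offs may differ, and compounds hitting several targets are kept. These are primary screening calls, not affinities; a compound without a hit may have attached poorly or may still bind in solution.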
Key: hit = hit, none = tested without a hit.
This is an unselected part of the compounds tested.

compound | PreQ1
Cc1ccc(CNCc2ccccc2Cl)s1 | none
Cc1noc(N)c1C(=O)Nc1ccc(C(C)(C)C)cc1 | none
CCc1ccc(-n2nc(CO)c(C(=O)NC(CC)CO)n2)cc1 (stereo not drawn) | none
CCOC(=O)c1sc2nc(N3CCCC3)c3c(c2c1N)CCCC3 | none
O=C(NNc1ccccn1)C1CCCNC1 (stereo not drawn) | none
Nc1ccc2oc(=O)c(-c3ccccc3)cc2c1 | none
c1cc(-n2cnnn2)cc(-n2ccnc2-c2cn(C3CCNCC3)nn2)c1 | none
COc1cccc(CNc2nc3ccc(C)cc3cc2-c2noc(C(C)C)n2)c1 | none
O=C(NCCN1CCCC(CO)C1)Nc1cccc(-c2cccc(Cl)c2)c1 (stereo not drawn) | none
Cc1cc(C)c(CNC(=O)c2cc(-c3ccc(CN4CCOCC4)cc3)cc3c2cnn3C2CCCC2)c(=O)[nH]1 | none
O=C(c1cccs1)N1CCC(N2CCC3(CCCNC3)C2)CC1 (stereo not drawn) | none
Cc1nc(N)sc1-c1cc(-c2ccccc2F)c(C#N)c(N)n1 | none
Nc1ccccc1-n1nc2ccc3ccccc3c2n1 | none
CC(C)c1ccc(CN2CCCC(O)(CNCc3cccnc3O)C2=O)cc1 (stereo not drawn) | none
Cl.O=C(O)c1ccc(CNC2C3CC4CC(C3)CC2C4)cc1 (stereo not drawn) | none
N#Cc1c(-c2cccnc2)cc(-c2cnn(-c3cccc(Cl)c3)c2)nc1N | none
Cl.OC(CN1CC=C(C=Cc2ccc(Br)cc2)CC1)c1ccccc1 (stereo not drawn) | none
Cc1nc(Nc2ccc(Cl)cc2)ncc1C(=O)O | none
CCOc1ccc(Cl)cc1CNCCNC(=O)c1nonc1N | none
COC(=O)C1=C(N)OC2=C(C(=O)CC(c3ccccc3)C2)C1c1cccc(Br)c1 (stereo not drawn) | none
S=c1nc[nH]c2nc[nH]c12 | none
CC1OC1c1ccc(-c2ccc(C3OC3C)cc2)cc1 (stereo not drawn) | none
Fc1ccc(-c2csc3ncnc(NCCc4cccs4)c23)cc1 | none
CC1(C)CC(=O)c2c(C(F)(F)F)nn(-c3ccc(C(N)=O)c(NC4CCC(O)CC4)c3)c2C1 (stereo not drawn) | none
NC(=O)C1=C(Nc2ccc(F)c(Cl)c2)c2ccccc2S1(=O)=O | none
COc1cccc2c1OCCCN(CC1(O)CCNC1)C2 (stereo not drawn) | none
COc1ccc(C(=O)N2CC[C@@H](CNC(=O)N3CCCC3)[C@H](O)C2)o1 | none
Cn1c(=O)c2c(-c3cccc(Br)c3)n(CCCO)cc2n(C)c1=O | none
Cc1cc(N(C)C)ccc1/N=N/c1ccc2ncccc2c1 | none
Nc1nc(N)nc(-c2ccc(Oc3ccccc3)cc2)n1 | none
CN1CCN(C[C@@H]2CN(C(=O)CCCc3ccccc3)C[C@@H]2CO)CC1 | none
Cc1cccc(Nc2c(-c3ccc(N4CCOCC4)cc3)nc3ncccn23)c1 | none
COCc1cc(C)nc2sc(C(=O)Nc3ccc(F)c(Cl)c3)c(N)c12 | none
Nc1ccc2c(c1)C(=O)NC2=O | none
NCCN1C(=O)CC[C@H]2CN(Cc3ccc(Cl)s3)CC[C@H]21 | none
Cn1c(CCCC(=O)O)nc2cc(N(CCCl)CCCl)ccc21 | none
CNCC(=O)NCCSc1ccc(Cl)cc1 | none
COC(=O)C1=C(N)Oc2c(c(=O)oc3ccccc23)C1c1cccnc1 (stereo not drawn) | none
Cc1nccn1CCCn1nc(C2CCCNC2)n(-c2ccccc2)c1=O (stereo not drawn) | none
CCC(=O)c1ccc(OCC(O)Cn2cnc3ccccc32)cc1 (stereo not drawn) | none
O=c1c(Nc2ccc(F)cc2)c(-c2ccccc2)c1=O | none
Nc1ccc2ncc(C(=O)O)c(O)c2c1 | none
CNc1cc(C)nc2c(C)c(-c3ccc(Cl)cc3)nn12 | none
CC1CCc2cc(F)ccc2N1C(=O)CN1C[C@H]2C[C@H](O)[C@H](O)C[C@H]2C1 (stereo partly drawn) | none
Nc1nc(N2CCc3[nH]c4ccc(Cl)cc4c3C2)c2nc[nH]c2n1 | none
Nc1nc(CSc2ccc(Cl)cc2)nc(N2CCCCC2)n1 | none
O=C1CC(C(=O)Nc2ccccc2)Nc2ccccc21 (stereo not drawn) | none
CCc1c2c(nc3ccc(OC(=O)N4CCC(N5CCCCC5)CC4)cc13)-c1cc3c(c(=O)n1C2)COC(=O)[C@]3(O)CC | none
O=c1c2ccccc2nc(CNc2ccccc2)n1-c1ccccc1Cl | none
Br.O=C(O)c1ccc(C(=O)CNc2ccc(I)cc2)cc1 | none
CCNc1nc(C)cc(N2CCN(S(=O)(=O)c3cccc(Cl)c3)CC2)n1 | none

The first 4 entries again:

compound	PreQ1
Cc1ccc(CNCc2ccccc2Cl)s1	none
Cc1noc(N)c1C(=O)Nc1ccc(C(C)(C)C)cc1	none
CCc1ccc(-n2nc(CO)c(C(=O)NC(CC)CO)n2)cc1 (stereo not drawn)	none
CCOC(=O)c1sc2nc(N3CCCC3)c3c(c2c1N)CCCC3	none